PubChem BioAssay AID1508588, Peter MacCallum Cancer Centre – 2020

Aim: 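Knock-downs boosting vemurafenib effects on melanoma cell growth or lactate release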 (primary screen)
Cell system: human WM266.4 melanoma cells (BRAF V600 mutant)
Reagent: siRNA pool against human genes, 40 nM
Duration: 96 h from transfection to read-out
Treatment: vemurafenib 300 nM (about IC25), added 48 h after transfection, for 48 h; comparison arm got DMSO vehicle only
Measurement: 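Ratios to non-targeting siRNA for cell gain, counted as DAPI nuclei after minus before drug and averaged over two replicates, and for absorbance-read medium lactate per cell; both binned into fold-change classes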
Reading the numbers: cell gain with vemurafenib: higher = more cell gain than with non-targeting siRNA; lactate per cell with vemurafenib: higher = more lactate made per cell
Hit rule: 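Enhancement is called by pairing each knock-down's vehicle-arm and drug-arm fold-change classes for viability or glycolysis; which class combinations qualify is not given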
Calls: active = enhances vemurafenib effect; inactive = no enhancement seen
In all, the deposit lists about 18,000 reagents; shown is a part drawn at random. 790 of them (4.4%) were called active. 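Calls rest on a combination of fold-change classes in drug and vehicle arms, not all shown here.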 Unmarked entries are inactive. Reagents against one gene are numbered here. A reagent listed more than once was tested more than once; the source does not tell the runs apart.

gene,reagent,cell gain with vemurafenib,lactate per cell with vemurafenib
FXYD3 (FXYD domain containing ion transport regulator 3),1,0.13,0.7
DSN1 (DSN1 component of MIS12 kinetochore complex),1,0.41,0.72
DMAP1 (DNA methyltransferase 1 associated protein 1),1,0.52,0.6
LINC02910 (long intergenic non-protein coding RNA 2910),1,0.68,0.79
GPR139 (G protein-coupled receptor 139),1,0.9,0.9
ZCCHC14 (zinc finger CCHC-type containing 14),1,0.32,0.9
POU3F1 (POU class 3 homeobox 1),1,0.79,0.85
SLC16A14,1,0.84,0.92
POPDC3 (popeye domain cAMP effector 3),1,0.25,1.4
KRT84 (keratin 84),1,0.59,0.53
MAGI1,1,0.63,1.1
DSCAML1 (DS cell adhesion molecule like 1),1,0.22,1.06
RFX2 (regulatory factor X2),1,0.83,0.84
OR5K1 (olfactory receptor family 5 subfamily K member 1),1,0.84,0.55
LMO2 (LIM domain only 2),1,0.43,0.96
SPATA13 (spermatogenesis associated 13),1,1.07,0.9
CBL (Cbl proto-oncogene),1,1.04,0.64
DUSP21 (dual specificity phosphatase 21),1,0.96,0.74
DUSP21 (dual specificity phosphatase 21),1,0.59,1.1
JMJD6,1,0.32,0.94
VNN1 (vanin 1),1,0.6,1
CADM1 (cell adhesion molecule 1),1,0.15,0.9
PDPR (pyruvate dehydrogenase phosphatase regulatory subunit),1,0.35,1.64
CASQ2 (calsequestrin 2),1,0.5,0.88
KLHDC10 (kelch domain containing 10),1,0.55,0.41
EIF5 (eukaryotic translation initiation factor 5),1,0.48,1.43
CYP2D6,1,0.42,0.48
MSANTD3 (Myb/SANT DNA binding domain containing 3),1,0.79,0.4
WDR77 (WD repeat domain 77),1,0.59,1.38
LDLRAP1 (low density lipoprotein receptor adaptor protein 1),1,0.97,0.94
C2orf68 (chromosome 2 open reading frame 68),1,0.47,1.43
OR4F29 (olfactory receptor family 4 subfamily F member 29),1,0.33,1.83
TRIM2 (tripartite motif containing 2),1,1.01,0.8
FKBP2 (FKBP prolyl isomerase 2),1,0.44,1.29
SIGLEC11 (sialic acid binding Ig like lectin 11),1,0.45,1.24
TBC1D17 (TBC1 domain family member 17),1,0.62,1.34
SYNPR (synaptoporin),1,0.63,1.23
CD200R1 (CD200 receptor 1),1,0.81,0.84
CCDC71 (coiled-coil domain containing 71),1,1.19,0.86
PPL (periplakin),1,1,0.44
LGMN (legumain),1,0.43,0.83
TAFA1 (TAFA chemokine like family member 1),1,0.97,0.73
MID2 (midline 2),1,0.98,0.52
LPXN (leupaxin),1,0.96,0.99
VIP (vasoactive intestinal peptide),1,0.89 (active),0.43
VAX2 (ventral anterior homeobox 2),1,0.99,0.27
DNAJC24 (DnaJ heat shock protein family (Hsp40) member C24),1,0.62,0.76
PPP1R2 (protein phosphatase 1 regulatory inhibitor subunit 2),1,0.52,0.23
GPR155 (G protein-coupled receptor 155),1,0.67,1.6
MLST8 (MTOR associated protein MLST8),1,0.43,0.72
CHRDL2 (chordin like 2),1,1.02,0.53
MFSD6L (major facilitator superfamily domain containing 6 like),1,0.32,0.64
AP3B2 (adaptor related protein complex 3 subunit beta 2),1,0.59,1.36
PSG4 (pregnancy specific beta-1-glycoprotein 4),1,0.67,0.69
"CCDC144BP (coiled-coil domain containing 144B, pseudogene)",1,1.12,0.42
MIER2 (MIER family member 2),1,0.46,1.42
S100G (S100 calcium binding protein G),1,0.38,1.02
ST14 (ST14 transmembrane serine protease matriptase),1,0.55,1.25
BIN3 (bridging integrator 3),1,0.91,0.78
GATAD1 (GATA zinc finger domain containing 1),1,0.18 (active),0.58
PTRH1 (peptidyl-tRNA hydrolase 1 homolog),1,0.75,1.36
RNF144A (ring finger protein 144A),1,0.86,1.15
LCN2 (lipocalin 2),1,0.69,0.66
FBXO44 (F-box protein 44),1,0.31,0.95
HSD17B12 (hydroxysteroid 17-beta dehydrogenase 12),1,0.85,0.74
GDNF (glial cell derived neurotrophic factor),1,0.6,1.34
YTHDC2 (YTH N6-methyladenosine RNA binding protein C2),1,-0.08 (active),0.18
MKNK1 (MAPK interacting serine/threonine kinase 1),1,0.94,0.84
DOCK5 (dedicator of cytokinesis 5),1,0.7,1.15
NRCAM (neuronal cell adhesion molecule),1,0.89,0.72
MAPK11 (mitogen-activated protein kinase 11),1,0.47,0.27
CIB4 (calcium and integrin binding family member 4),1,0.74,0.65
ATF7IP (activating transcription factor 7 interacting protein),1,0.59,0.78
"ENDOU (endonuclease, poly(U) specific)",1,0.96,0.96
H3C6 (H3 clustered histone 6),1,0.84,0.7
ZDHHC1 (zDHHC palmitoyltransferase 1),1,0.86,0.78
ZNF512 (zinc finger protein 512),1,0.64,1.05
SORL1 (sortilin related receptor 1),1,0.28,2.17
ERAL1 (Era like 12S mitochondrial rRNA chaperone 1),1,0.6,1.43
PKD1L1,1,0.55,1.82
MIF4GD (MIF4G domain containing),1,0.65,1.23
"FAM86C1P (family with sequence similarity 86 member C1, pseudogene)",1,0.21,2.09
NEUROD6 (neuronal differentiation 6),1,0,1.19
ZNF124 (zinc finger protein 124),1,1.25,0.74
CACNA2D1,1,0.51,0.86
COMMD9 (COMM domain containing 9),1,0.6,0.7
COMMD9 (COMM domain containing 9),2,0.71,0.43
OR52N5 (olfactory receptor family 52 subfamily N member 5),1,0.43,0.81
RET (ret proto-oncogene),1,0.8,0.76
OCEL1 (occludin/ELL domain containing 1),1,0.73,0.62
GARS1 (glycyl-tRNA synthetase 1),1,0.29,1.31
FOXD2 (forkhead box D2),1,0.65,1.03
H2BW1 (H2B.W histone 1),1,0.36,1.62
IDS (iduronate 2-sulfatase),1,0.23,1.56
RNF44 (ring finger protein 44),1,1,0.8
BGN (biglycan),1,0.7,0.95
IQGAP1 (IQ motif containing GTPase activating protein 1),1,0.43,0.89
"RAP1A (RAP1A, member of RAS oncogene family)",1,0.44,0.81
LRP10 (LDL receptor related protein 10),1,1.13,0.78
TPD52L3 (TPD52 like 3),1,0.51,1.05
SP110 (SP110 nuclear body protein),1,0.61,1.23
RAC2 (Rac family small GTPase 2),1,0.61,0.94
B3GNT8,1,0.55,0.76
OR4C46 (olfactory receptor family 4 subfamily C member 46),1,0.32,1.81
SLC17A5,1,0.79,0.64
IFT52 (intraflagellar transport 52),1,0.88,0.53
PLCD3 (phospholipase C delta 3),1,0.36,1.04

16 of these entries in another layout.
{"gene":"NRCAM (neuronal cell adhesion molecule)","reagent":1,"cell gain with vemurafenib":0.89,"lactate per cell with vemurafenib":0.72}
{"gene":"MAPK11 (mitogen-activated protein kinase 11)","reagent":1,"cell gain with vemurafenib":0.47,"lactate per cell with vemurafenib":0.27}
{"gene":"CIB4 (calcium and integrin binding family member 4)","reagent":1,"cell gain with vemurafenib":0.74,"lactate per cell with vemurafenib":0.65}
{"gene":"ATF7IP (activating transcription factor 7 interacting protein)","reagent":1,"cell gain with vemurafenib":0.59,"lactate per cell with vemurafenib":0.78}
{"gene":"ENDOU (endonuclease, poly(U) specific)","reagent":1,"cell gain with vemurafenib":0.96,"lactate per cell with vemurafenib":0.96}
{"gene":"H3C6 (H3 clustered histone 6)","reagent":1,"cell gain with vemurafenib":0.84,"lactate per cell with vemurafenib":0.7}
{"gene":"ZDHHC1 (zDHHC palmitoyltransferase 1)","reagent":1,"cell gain with vemurafenib":0.86,"lactate per cell with vemurafenib":0.78}
{"gene":"ZNF512 (zinc finger protein 512)","reagent":1,"cell gain with vemurafenib":0.64,"lactate per cell with vemurafenib":1.05}
{"gene":"SORL1 (sortilin related receptor 1)","reagent":1,"cell gain with vemurafenib":0.28,"lactate per cell with vemurafenib":2.17}
{"gene":"ERAL1 (Era like 12S mitochondrial rRNA chaperone 1)","reagent":1,"cell gain with vemurafenib":0.6,"lactate per cell with vemurafenib":1.43}
{"gene":"PKD1L1","reagent":1,"cell gain with vemurafenib":0.55,"lactate per cell with vemurafenib":1.82}
{"gene":"MIF4GD (MIF4G domain containing)","reagent":1,"cell gain with vemurafenib":0.65,"lactate per cell with vemurafenib":1.23}
{"gene":"FAM86C1P (family with sequence similarity 86 member C1, pseudogene)","reagent":1,"cell gain with vemurafenib":0.21,"lactate per cell with vemurafenib":2.09}
{"gene":"NEUROD6 (neuronal differentiation 6)","reagent":1,"cell gain with vemurafenib":0,"lactate per cell with vemurafenib":1.19}
{"gene":"ZNF124 (zinc finger protein 124)","reagent":1,"cell gain with vemurafenib":1.25,"lactate per cell with vemurafenib":0.74}
{"gene":"CACNA2D1","reagent":1,"cell gain with vemurafenib":0.51,"lactate per cell with vemurafenib":0.86}
